Source: the supplement of paper PMC5662767
Counter-ions that a name gives are not always drawn. Some of the results follow. Plates or batches differ in their baseline, so values are only roughly comparable.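 Smoothened with circularly permuted GFP in its cytoplasmic tail is carried by a clonal Drosophila S2 line; fluorescence appears when Hh-driven phosphorylation opens an inhibitory loop. Per-cell signal, read by flow cytometry, was scaled to Hh-stimulated untreated cells. Hits were consistent fluorescence-shifting groups of inhibitors sharing pathway targets, not single compounds.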 Residues, ends and D or L forms follow the SMILES beside them. *: point of attachment. Cbz = O=C(OCc1ccccc1)*

Test system: Drosophila S2 cl14 SmoIP sensor cells
Experiment: normalized SmoIP GFP fluorescence (untreated unstimulated = 0%, untreated Hh-stimulated = 100%); higher = more Smo activation sensor fluorescence
Conditions: compound concentration: 15 uM, 24 h
[1] = stimulation: Hh conditioned medium (+Hh)
[2] = stimulation: mock conditioned medium (-Hh)

Row | Compound | normalized SmoIP GFP fluorescence [1] [%] | normalized SmoIP GFP fluorescence [2] [%]
1 | O=c1ncccn1[C@@H]1O[C@H](CO)[C@@H](O)[C@H]1O [zebularine] | 125 | -0.775
2 | CC(=O)N1CCN(c2ccc(OCC3COC(Cn4ccnc4)(c4ccc(Cl)cc4Cl)O3)cc2)CC1 (configuration not stated) [Ketoconazole] | 196 | 79.7
3 | Cn1c(=O)n(-c2ccc(C(C)(C)C#N)cc2)c2c3cc(-c4cnc5ccccc5c4)ccc3ncc21 | 51.3 | -22.5
4 | CC(C)C[C@H](NC(=O)[C@H]1O[C@@H]1C(=O)O)C(=O)NCCCCN=C(N)N | 224 | 40.2
5 | C=CC(=O)Nc1cccc(Nc2nc(Nc3ccc(OCCOC)cc3)ncc2F)c1 | 164 | 80.5
6 | c1ccc(-c2[nH]ncc2-c2ccnc3ccccc23)nc1 | 129 | 20.9
7 | CCNC(=O)Nc1ccc(-c2nc3c(c(N4CCOC[C@@H]4C)n2)CCN(C2COC2)C3)cc1 | 111 | 17.8
8 | Cc1cc(O)c2c(c1)C(=O)c1cccc(O)c1C2=O [Chrysophanic-acid-Chrysophanol] | 126 | -12.2
9 | CC(C)C[C@@H](C=O)NC(=O)[C@H](CC(C)C)NC(=O)[C@H](CC(C)C)NC(=O)OCc1ccccc1 (Cbz-Leu-Leu-Leu-aldehyde) | 99.1 | 70.8
10 | c1ccc2c(Oc3nc(Nc4ccc(N5CCOCC5)cc4)c4ncn(C5CCCCC5)c4n3)cccc2c1 [purmorphamine] | 149 | 30.3
11 | CNC(=O)c1ccc(C)c(-n2c(C)cc(OCc3ccc(F)cc3F)c(Br)c2=O)c1 | 171 | 29.4
12 | CC1(C)Cc2c(-c3ccccc3)c(-c3ccc(Cl)cc3)c(CC(=O)O)n2C1 [licofelone] | 137 | 0.605
13 | O=C(O)Cc1ccccc1Nc1c(Cl)cccc1Cl [Diclofenac-sodium] | 121 | -14.1
14 | CN1[C@@H]2CC[C@H]1C[C@@H](OC(=O)c1c[nH]c3ccccc13)C2 [Tropisetron-hydrochloride] | 146 | -9.22
15 | CN(C)C(=O)c1cc2cnc(Nc3ccc(N4CCNCC4)cn3)nc2n1C1CCCC1 | 124 | 5.45
16 | CC(=O)Nc1cccc2c1c(Sc1ccc(Cl)cc1)c(C)n2CC(=O)O | 119 | 0.588
17 | O=C(c1cncc(Br)c1)N1CCC(N2CCCC2)CC1 | 159 | 33.9
18 | CC(=O)OCC(=O)NCCCOc1cccc(CN2CCCCC2)c1 [roxatidine-acetate-hcl] | 115 | -8.77
19 | CCC1=C(C)CN(C(=O)NCCc2ccc(S(=O)(=O)NC(=O)N[C@H]3CC[C@H](C)CC3)cc2)C1=O [Glimepiride] | 140 | 12.4
20 | O=C(NCc1ccc(Oc2ccccc2)cc1)c1nc(-c2cc(Br)c(O)c(Br)c2)no1 [iowh032] | 154 | 27.5
21 | CC(C)n1nc(-c2ccc3oc(N)nc3c2)c2c(N)ncnc21 | 136 | 60.9
22 | Clc1ccc(Nc2nnc(Cc3ccncc3)c3ccccc23)cc1 [Vatalanib,Dihydrochloride-Salt] | 174 | 7.91
23 | O=C(CCCS)NC1CCN(C(=O)COc2ccc(Cl)cc2Cl)CC1 [k-ras-g12c-inhibitor-6] | 121 | 0.361
24 | O=C(O)CC[C@H]1CC[C@@](c2cc(F)ccc2F)(S(=O)(=O)c2ccc(Cl)cc2)CC1 | 151 | 15.4

Row | Compound | normalized SmoIP GFP fluorescence [1] [%] | normalized SmoIP GFP fluorescence [2] [%]
25 | COc1ccccc1Oc1c(NS(=O)(=O)c2ccc(C(C)(C)C)cc2)nc(-c2ncccn2)nc1OCCO [bosentan-hydrate] | 119 | 6.27
26 | CC(C)c1cc(-c2ccc(F)c3ccccc23)nc(N)n1 | 108 | -12.2
27 | O=C1c2ccccc2C(=O)c2c1ccc(O)c2O [Alizarin] | 156 | 21.6
28 | CN(C)CC(c1ccc(O)cc1)C1(O)CCCCC1 (configuration not stated) [desvenlafaxine] | 109 | -0.889
29 | COc1cc2nc(N3CCCN(C)CC3)nc(NC3CCN(Cc4ccccc4)CC3)c2cc1OC | 155 | 35
30 | COc1cc2ncnc(Oc3cccc(NC(=O)Nc4cc(C(C)(C)C(F)(F)F)on4)c3)c2cc1OC | 134 | -3.45
31 | CC(C)(Oc1ccc(C2CC2(Cl)Cl)cc1)C(=O)O (configuration not stated) [ciprofibrate] | 127 | -12.7
32 | O=C(Nc1ccccc1Br)N[C@@H]1CCN(c2ccc(C(F)(F)F)cn2)C1 | 105 | -5.53
33 | CCS(=O)(=O)N1CC(CC#N)(n2cc(-c3ncnc4[nH]ccc34)cn2)C1 | 79.6 | 7.35
34 | COc1cc2nccc(Oc3ccc(NC(=O)NC4CC4)c(Cl)c3)c2cc1C(N)=O | 232 | 48.5
35 | CCCCc1oc2ccccc2c1C(=O)c1cc(I)c(OCCN(CC)CC)c(I)c1 [amiodarone-hcl] | 223 | 30.4
36 | CCOC(=O)c1ncn2c1CN(C)C(=O)c1cc(F)ccc1-2 [Flumazenil] | 133 | -2.64
37 | CC(C)NC[C@@H](C(=O)N1CCN(c2ncnc3c2[C@H](C)C[C@H]3O)CC1)c1ccc(Cl)cc1 | 84.4 | 4.79
38 | Cc1ccc(F)c(NC(=O)Nc2ccc(-c3cccc4[nH]nc(N)c34)cc2)c1 | 137 | 54.6
39 | COc1cc(-c2ncn(/C=C\C(=O)OC(C)C)n2)cc(C(F)(F)F)c1 | 105 | 1.21
40 | C[N+]1(C)[C@@H]2C[C@@H](OC(=O)C(O)(c3cccs3)c3cccs3)C[C@H]1[C@@H]1O[C@@H]12 [Tiotropium-Bromide-hydrate] | 121 | -17.7
41 | CC(C)C[C@H](NC(=O)[C@H](CCc1ccccc1)NC(=O)CN1CCOCC1)C(=O)N[C@@H](Cc1ccccc1)C(=O)N[C@@H](CC(C)C)C(=O)[C@@]1(C)CO1 [carfilzomib-pr-171] | 99.3 | 39.5
42 | CCOC(=O)c1ccc(N2NC(=O)C(=Cc3ccc([N+](=O)[O-])o3)C2=O)cc1 | 263 | 87.6
43 | CC(C)(C)NC[C@H](O)COc1nsnc1N1CCOCC1 [timolol-maleate] | 118 | -0.0369
44 | O=C(O)CCc1ccc(NCc2cccc(Oc3ccccc3)c2)cc1 | 103 | -14.5
45 | CN(C)CCc1c[nH]c2ccc(Cn3cncn3)cc12 [Rizatriptan-Benzoate(Maxalt)] | 129 | -2.64
46 | COc1cc2c(N3CCN(C(=O)Nc4ccc(OC(C)C)cc4)CC3)ncnc2cc1OCCCN1CCCCC1 [Tandutinib-(MLN518)] | 168 | 32
47 | O=C(NOCC1CC1)c1ccc(F)c(F)c1Nc1ccc(I)cc1Cl | 160 | 70.3
48 | Cc1cccc(-c2nn3c(c2-c2ccnc4ccc(C(N)=O)cc24)CCC3)n1 | 109 | -9.4

Row | Compound | normalized SmoIP GFP fluorescence [1] [%] | normalized SmoIP GFP fluorescence [2] [%]
49 | CN(C)[C@@H](CCOc1cccc2ccccc12)c1ccccc1 [Dapoxetine-hydrochloride(Priligy)] | 164 | 32.3
50 | CC(C)C[C@H](NC(=O)CNC(=O)c1cc(Cl)ccc1Cl)B(O)O | 90 | 38.1
51 | Oc1ccc(/C=C/c2cc(O)cc(O)c2)cc1 [Resveratrol] | 125 | 6.74
52 | Nc1nccc(Oc2ccc(NC(=O)c3c[nH]cc(-c4ccc(F)cc4)c3=O)cc2F)c1Cl | 197 | 54
53 | c1ccc2c(CC3=NCCN3)cccc2c1 [Naphazoline-hydrochloride-Naphcon] | 128 | -11
54 | Nc1ccc(-c2ccc3ncc4ccc(=O)n(-c5cccc(C(F)(F)F)c5)c4c3c2)cn1 [torin-2] | 48.4 | 30.8
55 | CN1C(C(=O)Nc2ccccn2)=C(O)c2sc(Cl)cc2S1(=O)=O [lornoxicam-xefo] | 155 | -12.9
56 | N=C(N)NC(=N)NCCc1ccccc1 [Phenformin-hydrochloride] | 135 | -9.04
57 | C=CC(=O)Nc1cc2c(Nc3ccc(F)c(Cl)c3)ncnc2cc1OCCCN1CCOCC1 [CI-1033(Canertinib)] | 166 | 74.3
58 | CCN(CC)CCOC(=O)c1ccc(N)cc1 [procaine-novocaine-hcl] | 115 | -1.12
59 | Cc1c(-c2ccccc2)oc2c(C(=O)OCCN3CCCCC3)cccc2c1=O [flavoxate-hcl] | 124 | 6.67
60 | Cc1ccc(C(=O)Cn2c3c(sc2=N)CCCC3)cc1 [pifithrin-alpha] | 121 | 2.75
61 | COc1ccc(C2=N[C@@H](c3ccc(Cl)cc3)[C@@H](c3ccc(Cl)cc3)N2C(=O)N2CCNC(=O)C2)c(OC(C)C)c1 [Nutlin-3] | 158 | 39.5
62 | CCC(=O)N1CCN(c2ccc(-n3c(=O)ccc4cnc5ccc(-c6cnc7ccccc7c6)cc5c43)cc2C(F)(F)F)CC1 [torin-1] | 78.8 | -5.04
63 | Cc1cc(NC(=O)Nc2ccc(N(C)C)cc2)c2cc(F)cc(F)c2n1 | 214 | 56.8
64 | Cc1cncc(CN2CCC(=C3c4ccc(Cl)cc4CCc4cccnc43)CC2)c1 [rupatadine-fumarate] | 152 | 37.2
65 | CNS(=O)(=O)Cc1ccc2[nH]cc(CCN(C)C)c2c1 [Sumatriptan-succinate] | 126 | 7.39
66 | COC(=O)[C@H](c1ccccc1Cl)N1CCc2sccc2C1 [Clopidogrel-bisulfate] | 168 | 25.9
67 | CC(C)(C)OC(=O)N[C@H]1CCCCC/C=C\[C@@H]2C[C@@]2(C(=O)NS(=O)(=O)C2CC2)NC(=O)[C@@H]2C[C@@H](OC(=O)N3Cc4cccc(F)c4C3)CN2C1=O [Danoprevir] | 126 | 15.9
68 | Cc1cc(/C=C/C#N)cc(C)c1Nc1ccnc(Nc2ccc(C#N)cc2)n1 [rilpivirine] | 162 | 45.1
69 | Cn1c(=O)cc(N2CCC[C@@H](N)C2)n(Cc2cc(F)ccc2C#N)c1=O [trelagliptin] | 113 | 46.4
70 | COc1ccc(-c2cc3c(C)nc(N)nc3n([C@H]3CC[C@H](OCCO)CC3)c2=O)cn1 | 47.8 | -17.7
71 | COc1cc(N2CCC(N)CC2)ccc1Nc1ncc(Cl)c(-c2c[nH]c3ccccc23)n1 | 179 | 72.6

Rewritten as tab-separated lines: four of the compounds above.
Row	Compound	normalized SmoIP GFP fluorescence [1] [%]	normalized SmoIP GFP fluorescence [2] [%]
5	C=CC(=O)Nc1cccc(Nc2nc(Nc3ccc(OCCOC)cc3)ncc2F)c1	164	80.5
24	O=C(O)CC[C@H]1CC[C@@](c2cc(F)ccc2F)(S(=O)(=O)c2ccc(Cl)cc2)CC1	151	15.4
40	C[N+]1(C)[C@@H]2C[C@@H](OC(=O)C(O)(c3cccs3)c3cccs3)C[C@H]1[C@@H]1O[C@@H]12 [Tiotropium-Bromide-hydrate]	121	-17.7
64	Cc1cncc(CN2CCC(=C3c4ccc(Cl)cc4CCc4cccnc43)CC2)c1 [rupatadine-fumarate]	152	37.2
